Assay results as given in PMC5090039.
Where two headings read alike, the source gives them in different places. No constants are given. Whether binding was seen depends on the method and setting. Binding seen in cells or lysates may run through a third protein. Some entries that bind do so weakly or less than the wild type. For part of these data: Sequences can lack the tags named with a protein.

Protein sequences, listed by entry. Tags and fused reporters are not part of them. Lines headed by an entry give the natural chain unless they say otherwise; changes in a name come on top. Residues count along the entry.
HCV NS4A (J6/JFH genome), GLuc2 fusion (hepatitis C virus (J6/JFH genome)) (Q99IB8, residues 1662-1715): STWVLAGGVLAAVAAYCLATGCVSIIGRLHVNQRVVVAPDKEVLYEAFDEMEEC
HCV NS5A (J6/JFH genome), GLuc2 fusion (hepatitis C virus (J6/JFH genome)) (Q99IB8, residues 1977-2442): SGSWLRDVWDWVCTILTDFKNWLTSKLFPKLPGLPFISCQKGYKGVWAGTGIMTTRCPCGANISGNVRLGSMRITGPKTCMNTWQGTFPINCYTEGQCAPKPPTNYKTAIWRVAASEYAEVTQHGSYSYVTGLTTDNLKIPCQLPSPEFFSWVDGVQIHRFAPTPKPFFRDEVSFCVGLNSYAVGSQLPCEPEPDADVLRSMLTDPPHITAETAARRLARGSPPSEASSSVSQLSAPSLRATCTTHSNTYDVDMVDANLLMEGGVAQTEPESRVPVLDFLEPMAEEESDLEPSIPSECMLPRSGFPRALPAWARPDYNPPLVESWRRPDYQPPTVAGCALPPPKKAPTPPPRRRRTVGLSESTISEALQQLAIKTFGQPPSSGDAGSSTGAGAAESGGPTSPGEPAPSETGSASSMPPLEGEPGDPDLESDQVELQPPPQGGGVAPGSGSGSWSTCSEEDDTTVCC
UniProt O14964: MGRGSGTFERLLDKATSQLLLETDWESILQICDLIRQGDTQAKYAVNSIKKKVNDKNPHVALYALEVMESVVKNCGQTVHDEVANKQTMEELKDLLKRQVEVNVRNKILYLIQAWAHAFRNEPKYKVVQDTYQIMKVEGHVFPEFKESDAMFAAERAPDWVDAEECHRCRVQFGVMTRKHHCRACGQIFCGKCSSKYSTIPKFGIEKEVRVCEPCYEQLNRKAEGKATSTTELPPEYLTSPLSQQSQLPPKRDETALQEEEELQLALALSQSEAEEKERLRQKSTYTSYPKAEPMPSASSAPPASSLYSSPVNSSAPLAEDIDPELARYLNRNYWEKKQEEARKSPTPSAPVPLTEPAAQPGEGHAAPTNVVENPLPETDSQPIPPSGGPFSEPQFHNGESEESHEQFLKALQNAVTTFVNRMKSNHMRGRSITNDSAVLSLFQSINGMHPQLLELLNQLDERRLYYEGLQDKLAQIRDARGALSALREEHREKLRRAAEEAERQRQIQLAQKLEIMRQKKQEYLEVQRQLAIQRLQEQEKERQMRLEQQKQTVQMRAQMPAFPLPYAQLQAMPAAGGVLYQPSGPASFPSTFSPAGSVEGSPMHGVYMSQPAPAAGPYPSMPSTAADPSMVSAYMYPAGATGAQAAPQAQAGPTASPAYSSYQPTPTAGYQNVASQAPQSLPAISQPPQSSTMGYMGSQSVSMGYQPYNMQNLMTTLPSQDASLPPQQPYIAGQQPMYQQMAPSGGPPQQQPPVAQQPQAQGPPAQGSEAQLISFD
HCV p7 (J6/JFH genome), GLuc2 fusion (hepatitis C virus (J6/JFH genome)) (P26660, residues 751-813): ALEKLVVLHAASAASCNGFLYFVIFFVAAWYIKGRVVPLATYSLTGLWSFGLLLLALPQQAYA
HCV NS2 (J6/JFH genome), GLuc2 fusion (hepatitis C virus (J6/JFH genome)) (P26660, residues 814-1030): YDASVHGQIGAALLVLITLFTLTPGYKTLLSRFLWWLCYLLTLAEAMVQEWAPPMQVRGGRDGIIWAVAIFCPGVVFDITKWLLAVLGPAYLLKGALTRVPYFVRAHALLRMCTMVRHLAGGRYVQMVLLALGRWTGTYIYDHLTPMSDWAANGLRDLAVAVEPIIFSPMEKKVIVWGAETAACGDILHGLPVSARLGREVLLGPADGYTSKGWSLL
UniProt Q99816: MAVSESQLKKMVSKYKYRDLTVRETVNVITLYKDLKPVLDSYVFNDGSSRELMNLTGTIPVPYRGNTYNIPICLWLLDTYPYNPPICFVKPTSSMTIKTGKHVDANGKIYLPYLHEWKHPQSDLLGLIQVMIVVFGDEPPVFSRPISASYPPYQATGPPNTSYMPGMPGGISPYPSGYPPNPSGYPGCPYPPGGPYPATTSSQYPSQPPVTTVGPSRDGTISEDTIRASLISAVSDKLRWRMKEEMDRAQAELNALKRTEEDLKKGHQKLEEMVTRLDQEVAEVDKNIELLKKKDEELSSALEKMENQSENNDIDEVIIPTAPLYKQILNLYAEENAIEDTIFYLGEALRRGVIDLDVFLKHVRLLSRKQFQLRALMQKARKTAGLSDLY

Legend:
[1] = target: HCV NS5A expressed from J6/JFH HCV RNA (hepatitis C virus (J6/JFH genome)) (UniProt Q99IB8); experiment: co-IP; membrane fractions of Huh-7.5 cells transfected with J6/JFH HCV RNA (naive cells and IgG as controls); IP with anti-HRS, anti-NS2 or anti-NS5A antibodies, immunoblot
[2] = target: HRS, endogenous in Huh-7.5 cells (human (endogenous in Huh-7.5)) (UniProt O14964); experiment: as above
[3] = target: HCV NS2 expressed from J6/JFH HCV RNA (hepatitis C virus (J6/JFH genome)) (UniProt P26660); experiment: as above
[4] = target: HCV p7 (J6/JFH genome), GLuc2 fusion (hepatitis C virus (J6/JFH genome)) (UniProt P26660); experiment: split reporter; protein-fragment complementation assay (PCA) with split Gaussia luciferase; GLuc1-prey (ESCRT) and GLuc2-bait (HCV) plasmids cotransfected pairwise into 293T cells in 96-well plates, lysed at 24 h; normalized luminescence ratio (NLR); positive at z score >2.2 (NLR >25)
[5] = target: HCV NS5A (J6/JFH genome), GLuc2 fusion (hepatitis C virus (J6/JFH genome)) (UniProt Q99IB8); experiment: as above
[6] = target: HCV NS4A (J6/JFH genome), GLuc2 fusion (hepatitis C virus (J6/JFH genome)) (UniProt Q99IB8); experiment: as above
[7] = target: TSG101, Gaussia luciferase fragment fusion (UniProt Q99816); experiment: as above
[8] = target: HCV NS2 (J6/JFH genome), GLuc2 fusion (hepatitis C virus (J6/JFH genome)) (UniProt P26660); experiment: as above
[9] = target: HCV NS2 (J6/JFH genome), GLuc2 fusion (hepatitis C virus (J6/JFH genome)) (UniProt P26660); experiment: as above; remark: listed apart in the source
[10] = target: HCV NS5A (J6/JFH genome), GLuc2 fusion (hepatitis C virus (J6/JFH genome)) (UniProt Q99IB8); experiment: as above; remark: listed apart in the source

HCV NS2 expressed from J6/JFH HCV RNA (from UniProt P26660 814-1030)
binding [1]: binds
binding [2]: binds

HCV NS5A expressed from J6/JFH HCV RNA (from UniProt Q99IB8 1977-2442)
binding [3]: binds
binding [2]: binds

HRS (hepatocyte growth factor-regulated tyrosine kinase substrate), GLuc1 fusion (from UniProt O14964 1-777)
binding [4]: binds
binding [5]: binds
binding [6]: binds
binding [7]: binds
binding [8]: binds

HRS UIM double mutant A266Q/A268Q (from UniProt O14964 1-777)
binding [7]: binds

HRS UIM double mutant L269A/S270A (from UniProt O14964 1-777)
binding [7]: binds

HRS, endogenous in Huh-7.5 cells (from UniProt O14964 1-777)
binding [1]: binds
binding [3]: binds

B1: SLC9A6, GLuc1 fusion (protein, UniProt Q92581 1-701)
chain: MARRGWRRAPLRRGVGSSPRARRLMRPLWLLLAVGVFDWAGASDGGGGEARAMDEEIVSEKQAEESHRQDSANLLIFILLLTLTILTIWLFKHRRARFLHETGLAMIYGLLVGLVLRYGIHVPSDVNNVTLSCEVQSSPTTLLVNVSGKFYEYMLKGEISSHELNNVQDNEMLRKVTFDPEVFFNILLPPIIFYAGYSLKRRHFFRNLGSILAYAFLGTAISCFVIGSIMYGCVTLMKVTGQLAGDFYFTDCLLFGAIVSATDPVTVLAIFHELQVDVELYALLFGESVLNDAVAIVLSSSIVAYQPAGDNSHTFDVTAMFKSIGIFLGIFSGSFAMGAATGVVTALVTKFTKLREFQLLETGLFFLMSWSTFLLAEAWGFTGVVAVLFCGITQAHYTYNNLSTESQHRTKQLFELLNFLAENFIFSYMGLTLFTFQNHVFNPTFVVGAFVAIFLGRAANIYPLSLLLNLGRRSKIGSNFQHMMMFAGLRGAMAFALAIRDTATYARQMMFSTTLLIVFFTVWVFGGGTTAMLSCLHIRVGVDSDQEHLGVPENERRTTKAESAWLFRMWYNFDHNYLKPLLTHSGPPLTTTLPACCGPIARCLTSPQAYENQEQLKDDDSDLILNDGDISLTYGDSTVNTEPATSSAPRRFMGNSSEDALDRELAFGDHELVIRGTRLVLPMDDSEPPLNLLDNTRHGPA
binding [9]: binds

B2: VPS4A, GLuc1 fusion (protein, UniProt Q9UN37 1-437)
chain: MTTSTLQKAIDLVTKATEEDKAKNYEEALRLYQHAVEYFLHAIKYEAHSDKAKESIRAKCVQYLDRAEKLKDYLRSKEKHGKKPVKENQSEGKGSDSDSEGDNPEKKKLQEQLMGAVVMEKPNIRWNDVAGLEGAKEALKEAVILPIKFPHLFTGKRTPWRGILLFGPPGTGKSYLAKAVATEANNSTFFSVSSSDLMSKWLGESEKLVKNLFELARQHKPSIIFIDEVDSLCGSRNENESEAARRIKTEFLVQMQGVGNNNDGTLVLGATNIPWVLDSAIRRRFEKRIYIPLPEEAARAQMFRLHLGSTPHNLTDANIHELARKTEGYSGADISIIVRDSLMQPVRKVQSATHFKKVCGPSRTNPSMMIDDLLTPCSPGDPGAMEMTWMDVPGDKLLEPVVCMSDMLRSLATTRPTVNADDLLKVKKFSEDFGQES
binding [10]: binds
